# Primary screen of a compound library

From ChEMBL document CHEMBL3988442, “University of Dundee, Small-Polar-MMV Screening Library” (2021).

Values are the deposited “Percent Effect”, in %.
The controls that fix the scale are not given in the record; negative values are as filed.
This is an unselected part of the compounds tested.
Two or more numbers in one place are separate tests of the same structure; such repeats can differ widely.

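Viability assay of Plasmodium falciparum sporozoites; the read-out is not stated. The concentration is filed as 10 mM, unlikely as a test dose, so the dose is not known. Direction is inferred from retests: higher values go with lower viability. Strong results were mostly tested again. Size under these conditions: about 34,000 compounds, about 280 of them at 50% or above in at least one test.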

structure: CC(C)N(C)CCNC(=O)N(C)CC1CCOCC1
Percent Effect: -10.34

structure: O=C(O)c1coc(COc2cccc(F)c2)n1
Percent Effect: -13.84

structure: N#Cc1ccc(OC2CCN(CC(=O)NCC(F)(F)F)CC2)cc1
Percent Effect: -14.98

structure: Cc1cccc(-c2noc(C)c2C(=O)NC2CCCOC2)c1.O=C(O)CC(O)(CC(=O)O)C(=O)O (stereo not drawn)
Percent Effect: -14.5

structure: COC(=O)CCc1c(C)nc2cc(O)nn2c1C
Percent Effect: 5.56

structure: [H][C@]12CC(Cn3cccn3)N(C)[C@@]1([H])CCN(Cc1nccs1)C2 (stereo partly drawn)
Percent Effect: 4.387

structure: Fc1ccc(-c2cnc(CN3CCn4c(nnc4C4CC4)C3)o2)cc1
Percent Effect: 6.587

structure: Cc1ccc(Cc2cnc(NC(=O)C3CNC(=O)N3)s2)cc1F (stereo not drawn)
Percent Effect: -13.37

structure: COc1ccc(OC)c(C2CCN(Cc3nc(C)n4ccccc34)C2)c1 (stereo not drawn)
Percent Effect: 17.78

structure: c1ccn(Cc2nnc3n2CCCN(c2cnccn2)C3)c1
Percent Effect: 14.56

structure: Cc1ncccc1-c1cc2cccnc2n1CCCNC(=O)C1CC1.Cl
Percent Effect: -4.665

structure: [H][C@@]12C[C@H](C(=O)NCc3ccccc3)[C@@]([H])(CN(S(=O)(=O)N(C)C)C1)O2
Percent Effect: -5.839

structure: COc1ccc(OCCc2cc(C3CNCCO3)nn2C)cc1 (stereo not drawn)
Percent Effect: 0.06458

structure: NC(=O)c1c(NC(=O)CCCC(=O)O)sc2c1CCc1ccccc1-2
Percent Effect: 16.66 & 14.44

structure: O=C(O)C(F)(F)F.O=C(O)C(F)(F)F.O=C(c1cccnc1)N1Cc2nccn2CC(COc2cccnc2)C1 (stereo not drawn)
Percent Effect: 5.565

structure: Cn1cc(C(=O)Nc2cccc(F)c2)ccc1=O
Percent Effect: 7.835

structure: Cc1ccc2c(c1)[C@@H](CC(=O)N1CCOCC1)CCO2
Percent Effect: 10.08

structure: O=C(CN1CCCCCC1)N1CCc2nnc(C3CCCNC3)n2CC1 (stereo not drawn)
Percent Effect: 3.121

structure: CCOc1ccc(CN2CCCC(c3cc4ncccc4[nH]3)C2)cc1 (stereo not drawn)
Percent Effect: 5.439

structure: Cc1cc(C[C@@H]2COC[C@H]2NCc2ccc(Br)s2)on1.O=C(O)CC(O)(CC(=O)O)C(=O)O
Percent Effect: -11.25 & 5.095 & -15.03

structure: CCN1CCN(C(=O)c2cn(Cc3ccccc3)c3ncccc23)CC1
Percent Effect: -1.707

structure: CNC(=O)C1CN(C(=O)Cc2ccc(OC)cc2)Cc2cn(C)nc21 (stereo not drawn)
Percent Effect: 9.368

structure: CN1CCN(C2COC3(CCN(c4ccc(C#N)cc4)CC3)C2)CC1.O=C(O)C(F)(F)F (stereo not drawn)
Percent Effect: 2.773

structure: Cc1[nH]ncc1C(=O)N1CCOC(c2cccs2)C1 (stereo not drawn)
Percent Effect: 3.02

structure: Cc1nc2ccccn2c1CC(=O)N[C@@H]1CCC[C@@H](N2CCCC2)[C@@H]1O
Percent Effect: 9.956

structure: CN(C)C1COC2(CCN(S(=O)(=O)c3ccc(F)cc3)CC2)C1.O=C(O)C(F)(F)F (stereo not drawn)
Percent Effect: -4.003

structure: CN(CCc1ccccc1)Cc1cc(C(=O)N2CCN(C)C(=O)C2)no1
Percent Effect: 2.526

structure: CC(C)c1nc(N2CCN3CCCC3C2)c2cnn(C)c2n1 (stereo not drawn)
Percent Effect: -6.642

structure: COc1ccc(C2(c3nc(-c4cccnc4)no3)CCOCC2)cc1
Percent Effect: 11.65

structure: O=C(Nc1ccccc1F)N1CCN(Cc2noc(C3CC3)n2)CC1
Percent Effect: -8.831

structure: COc1cccc(N2CCN(C(=O)CN(C)c3cnccn3)CC2)c1
Percent Effect: 5.809

structure: CCN(CC)Cc1ccc(C(=O)N2CCCC2Cn2cc(C)cn2)o1 (stereo not drawn)
Percent Effect: -7.239

structure: Cc1cccc(N2CCN(C(=O)CN3CCN(CCO)CC3)CC2)c1
Percent Effect: -1.403

structure: O=S(=O)(NCC1CCOc2ccccc2C1)N1CCOCC1 (stereo not drawn)
Percent Effect: -2.399

structure: O=C(c1cc[nH]n1)N1CCOCC2(C1)CN(c1ccccc1)C(=O)CO2 (stereo not drawn)
Percent Effect: -3.076 & -6.376 & 3.541

structure: N#Cc1ccc(CS(=O)(=O)NC(=O)COc2ccc3c(c2)CCC3)cc1
Percent Effect: 6.936

structure: CN(C)c1ccc(CNC(=O)Nc2ccc(S(C)(=O)=O)nc2)cc1
Percent Effect: 7.717

structure: O=C(CCCOc1cccc(F)c1)N1CCCC(n2cccn2)C1 (stereo not drawn)
Percent Effect: -8.643

structure: CCSc1ccc(C(C)NC(=O)CCS(C)(=O)=O)cc1 (stereo not drawn)
Percent Effect: 12.57

structure: CNC(=O)c1cc2ccccc2n1C
Percent Effect: -17.77

structure: CC(=O)N1N=C(c2ccccc2)OC1C(=O)NCCc1ccc(O)cc1 (stereo not drawn)
Percent Effect: 3.916

3 of the entries, repeated:

O=C(CN1CCCCCC1)N1CCc2nnc(C3CCCNC3)n2CC1 (stereo not drawn) read 3.121%.
COc1ccc(OC)c(C2CCN(Cc3nc(C)n4ccccc34)C2)c1 (stereo not drawn) read 17.78%.
O=C(c1cc[nH]n1)N1CCOCC2(C1)CN(c1ccccc1)C(=O)CO2 (stereo not drawn) read -3.076% & -6.376% & 3.541%.